# Percent effect of library compounds

Results are given as percent effect.
How 0% and 100% were set is not recorded. Most values in the screen are low, and negative values occur.
The compounds are a random part of those screened.

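Growth of Mycobacterium tuberculosis over 4 days (cholesterol / DPPC medium with tyloxapol); the read-out is not stated. Concentration: 500 µM. Direction is inferred from retests: higher values go with more growth inhibition. Size under these conditions: about 18,000 compounds, about 900 of them at 50% or above in at least one test.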

structure,Percent Effect
Cc1cnc(CNCC2(O)CNCCOC2)cn1 (centres unmarked),-18.4
NC(=O)C(OC(=O)CCc1ccc(F)cc1)C1CC1 (centres unmarked),10.81
CS(=O)(=O)CCSCc1ccn(-c2ccc(F)cc2)n1,-11.22
NCc1ccncc1OCC(F)F,5.033
O=C(c1ccccc1Cl)N1CCC(n2cnnc2)CC1,1.109
N#CCC(=O)c1ccccc1OC(F)F,24.38
CC(N)c1ccc(Br)cc1OCCCO (centres unmarked),14.44
CC(C1CCN(Cc2ncc[nH]2)CC1)N1CCOCC1 (centres unmarked),-0.4771
CSc1ncccc1C(=O)NCCN1CCC(C)CC1,-12.76
CCOCCOc1cc(C(N)=O)ccc1C,11.58
COCc1nn(CC(O)c2cccc(F)c2)c(=O)o1 (centres unmarked),-8.111
CN(Cc1cnn(C)c1)C(=O)C1CCNCC1,-0.7206
c1ccc(N2CCCN3CCCC3C2)nc1 (centres unmarked),9.653
CNCC1CCCN(Cc2nccn2CCOC)C1 (centres unmarked),7.389
COCC(C)NS(=O)(=O)c1ncn(C)c1Cl (centres unmarked),-6.659
CC(=O)N1N=C(c2ccccn2)CC1c1ccccc1 (centres unmarked),-1.725
CC1=NN(C(=O)CC#N)C(O)(c2ccccc2)C1 (centres unmarked),18.4
Cc1ccnc(NCCNC(=O)CN2CCOC2=O)c1,-32.7
O=c1cc(N2CCCC2)cnn1CC1CCNC1 (centres unmarked),-30.34
O=S(=O)(CCN1CCC(CO)CC1)c1ccc(Cl)cc1,23.61
CC(C)Cc1cc(C(=O)NCC2CCCN(C)C2)[nH]n1 (centres unmarked),9.064
Cc1nnc(SCCCNC(=O)c2csnn2)s1,-0.3667
COCC(C)NC(=O)c1cncn1-c1ccc(F)cc1 (centres unmarked),-3.425
O=C(CC1CCS(=O)(=O)C1)NCCc1ccc(F)cc1 (centres unmarked),0.956
N#Cc1ccc(CN2CCn3ccnc3C2)c(F)c1,2.986
COC[C@H]1CCCN1CCC(=O)Nc1cccnc1,-18.7
NCc1ccncc1OCC1CCOC1 (centres unmarked),-2.885
O=C1Nc2ccc(Cl)cc2NC12CCOC2 (centres unmarked),-11.17
NCc1ccnc(-n2ccnc2)c1,18.62
CC(C)CN1CCC(O)CC1,4.291
Cc1ccc2ncc(CO)cc2c1,8.514
CCc1nccn1CCNC(=O)CN1CCCC1,-0.1216
O=S(=O)(CCO)Cc1ccc(Br)s1,-13.53
CCCN(Cc1cccc(C#N)c1)C1CCS(=O)(=O)C1 (centres unmarked),11.88
Cc1cccc(N(C)C(=O)CCC(=O)OC(C)(C)C)n1,13.9
CC(C)[C@H](N)C(=O)N(C)c1ccccc1,1.83
O=c1c2ccccc2ncn1CCN1CCOCC1,2.151
CCOCCN1CCN(CC(C)O)CC1 (centres unmarked),-8.835
CCCN1CCCC(CNC(=O)c2ccn(CC)n2)C1 (centres unmarked),-19.33
CCOC1CCN(C(=O)C(O)c2ccc(F)cc2)CC1 (centres unmarked),10.22
OCC1CCN(Cc2cc(F)cc3cccnc23)CC1,2.031
O=S(=O)(NCc1ccncc1)c1cccc2nonc12,-2.436
O=C(NCC1CC1)c1cn(CCC2CCCCN2)nn1 (centres unmarked),-18.05
COc1ccc(OCCCC(=O)NCCN(C)C)cc1,21.97
CN(CC(N)=O)Cc1cc(Br)c2c(c1)OCO2,28.33
CO[C@H]1CN(C(C)C)C[C@@H]1NC(=O)c1nc(C)c[nH]1,4.641
Cc1n[nH]c(SCC(=O)NC[C@H]2CCCN2)n1,15.59
CSc1cccc(N(C)C(=O)C(N)c2ccccc2)c1 (centres unmarked),55.03
CCC(C(=O)N1CCC(O)CC1)c1ccccc1 (centres unmarked),7.258
CCC(c1cccnc1)N(C)C(=O)c1ccc(CO)o1 (centres unmarked),1.497
CC(C)c1ccc(O)c(C(=O)N2CCOCC2)c1,-4.09

3 of the entries, repeated:

O=S(=O)(NCc1ccncc1)c1cccc2nonc12 gave -2.436%.
O=S(=O)(CCN1CCC(CO)CC1)c1ccc(Cl)cc1 gave 23.61%.
COCC(C)NC(=O)c1cncn1-c1ccc(F)cc1 (centres unmarked) gave -3.425%.

The values are deposited in ChEMBL (CHEMBL3988442, “University of Dundee, Small-Polar-MMV Screening Library” (2021)).